# Laboratory results taken from paper PMC10654059.
# Sequences of proteins named here, by UniProt entry; tags and fusion partners are left off. A change or cut given only in a name is not applied to a line headed by its entry.
# UniProt P0A6H1: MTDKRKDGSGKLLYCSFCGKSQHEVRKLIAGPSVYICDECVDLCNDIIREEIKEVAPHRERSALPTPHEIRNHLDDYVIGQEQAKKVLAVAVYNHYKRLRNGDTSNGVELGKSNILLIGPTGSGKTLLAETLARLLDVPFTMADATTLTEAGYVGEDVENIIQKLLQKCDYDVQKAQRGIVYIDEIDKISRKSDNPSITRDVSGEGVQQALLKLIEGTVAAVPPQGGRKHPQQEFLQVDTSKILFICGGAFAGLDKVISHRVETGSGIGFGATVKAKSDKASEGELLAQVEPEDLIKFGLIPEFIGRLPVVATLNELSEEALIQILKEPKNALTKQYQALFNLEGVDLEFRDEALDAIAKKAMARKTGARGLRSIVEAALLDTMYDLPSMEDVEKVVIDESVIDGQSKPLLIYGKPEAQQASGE
# UniProt P63284: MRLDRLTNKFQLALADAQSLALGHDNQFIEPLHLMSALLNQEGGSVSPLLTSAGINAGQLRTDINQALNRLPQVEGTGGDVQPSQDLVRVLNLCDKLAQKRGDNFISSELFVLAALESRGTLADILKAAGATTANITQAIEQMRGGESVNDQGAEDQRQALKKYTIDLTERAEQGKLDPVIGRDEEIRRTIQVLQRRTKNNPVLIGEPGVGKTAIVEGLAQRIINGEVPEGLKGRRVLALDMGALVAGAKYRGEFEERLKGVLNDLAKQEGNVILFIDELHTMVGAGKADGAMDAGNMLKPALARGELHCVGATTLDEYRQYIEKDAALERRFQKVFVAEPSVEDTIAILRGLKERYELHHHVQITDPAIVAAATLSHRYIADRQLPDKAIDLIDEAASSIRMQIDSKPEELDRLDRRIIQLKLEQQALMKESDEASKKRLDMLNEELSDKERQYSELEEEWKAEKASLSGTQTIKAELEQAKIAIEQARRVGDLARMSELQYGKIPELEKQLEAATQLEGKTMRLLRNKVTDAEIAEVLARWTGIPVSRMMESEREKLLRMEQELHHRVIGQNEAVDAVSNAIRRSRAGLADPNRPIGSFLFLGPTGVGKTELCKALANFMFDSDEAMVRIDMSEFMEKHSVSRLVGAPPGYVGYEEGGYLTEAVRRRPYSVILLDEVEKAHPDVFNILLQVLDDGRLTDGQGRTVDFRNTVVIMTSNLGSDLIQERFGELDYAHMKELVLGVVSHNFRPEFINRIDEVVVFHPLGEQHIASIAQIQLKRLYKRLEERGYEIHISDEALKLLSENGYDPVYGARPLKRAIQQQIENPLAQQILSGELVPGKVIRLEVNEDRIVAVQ
# UniProt P0A6H5: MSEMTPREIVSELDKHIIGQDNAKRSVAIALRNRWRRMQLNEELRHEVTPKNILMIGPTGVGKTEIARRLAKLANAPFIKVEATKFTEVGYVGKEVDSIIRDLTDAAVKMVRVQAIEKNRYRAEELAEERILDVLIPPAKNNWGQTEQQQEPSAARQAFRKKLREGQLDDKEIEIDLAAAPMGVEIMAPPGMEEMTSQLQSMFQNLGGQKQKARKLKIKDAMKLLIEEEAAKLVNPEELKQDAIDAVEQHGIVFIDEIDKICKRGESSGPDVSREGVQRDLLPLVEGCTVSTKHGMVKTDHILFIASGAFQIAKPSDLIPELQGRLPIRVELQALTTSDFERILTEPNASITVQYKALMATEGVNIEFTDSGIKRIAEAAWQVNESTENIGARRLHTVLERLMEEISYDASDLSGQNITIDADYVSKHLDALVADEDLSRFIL
# UniProt P0AG30: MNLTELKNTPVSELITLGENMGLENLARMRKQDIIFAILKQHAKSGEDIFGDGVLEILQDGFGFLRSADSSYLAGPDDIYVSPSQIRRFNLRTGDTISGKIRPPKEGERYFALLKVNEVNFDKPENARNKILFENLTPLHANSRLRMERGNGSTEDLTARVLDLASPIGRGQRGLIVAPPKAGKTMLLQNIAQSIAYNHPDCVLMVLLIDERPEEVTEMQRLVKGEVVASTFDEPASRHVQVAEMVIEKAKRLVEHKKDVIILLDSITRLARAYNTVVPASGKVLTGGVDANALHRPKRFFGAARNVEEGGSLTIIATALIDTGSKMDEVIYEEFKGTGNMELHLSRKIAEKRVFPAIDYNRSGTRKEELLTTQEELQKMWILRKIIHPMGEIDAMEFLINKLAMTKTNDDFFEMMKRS
# UniProt P0A850: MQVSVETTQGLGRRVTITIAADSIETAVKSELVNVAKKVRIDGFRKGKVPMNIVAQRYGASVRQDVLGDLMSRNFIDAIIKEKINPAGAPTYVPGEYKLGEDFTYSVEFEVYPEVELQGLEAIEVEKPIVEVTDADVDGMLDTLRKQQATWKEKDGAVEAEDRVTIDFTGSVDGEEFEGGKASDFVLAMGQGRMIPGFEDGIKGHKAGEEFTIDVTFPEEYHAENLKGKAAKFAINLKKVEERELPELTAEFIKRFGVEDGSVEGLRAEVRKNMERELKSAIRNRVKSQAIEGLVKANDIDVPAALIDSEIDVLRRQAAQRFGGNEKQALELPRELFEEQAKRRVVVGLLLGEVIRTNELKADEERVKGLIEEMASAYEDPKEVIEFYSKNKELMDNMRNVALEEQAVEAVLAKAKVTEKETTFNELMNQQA
# UniProt P21513: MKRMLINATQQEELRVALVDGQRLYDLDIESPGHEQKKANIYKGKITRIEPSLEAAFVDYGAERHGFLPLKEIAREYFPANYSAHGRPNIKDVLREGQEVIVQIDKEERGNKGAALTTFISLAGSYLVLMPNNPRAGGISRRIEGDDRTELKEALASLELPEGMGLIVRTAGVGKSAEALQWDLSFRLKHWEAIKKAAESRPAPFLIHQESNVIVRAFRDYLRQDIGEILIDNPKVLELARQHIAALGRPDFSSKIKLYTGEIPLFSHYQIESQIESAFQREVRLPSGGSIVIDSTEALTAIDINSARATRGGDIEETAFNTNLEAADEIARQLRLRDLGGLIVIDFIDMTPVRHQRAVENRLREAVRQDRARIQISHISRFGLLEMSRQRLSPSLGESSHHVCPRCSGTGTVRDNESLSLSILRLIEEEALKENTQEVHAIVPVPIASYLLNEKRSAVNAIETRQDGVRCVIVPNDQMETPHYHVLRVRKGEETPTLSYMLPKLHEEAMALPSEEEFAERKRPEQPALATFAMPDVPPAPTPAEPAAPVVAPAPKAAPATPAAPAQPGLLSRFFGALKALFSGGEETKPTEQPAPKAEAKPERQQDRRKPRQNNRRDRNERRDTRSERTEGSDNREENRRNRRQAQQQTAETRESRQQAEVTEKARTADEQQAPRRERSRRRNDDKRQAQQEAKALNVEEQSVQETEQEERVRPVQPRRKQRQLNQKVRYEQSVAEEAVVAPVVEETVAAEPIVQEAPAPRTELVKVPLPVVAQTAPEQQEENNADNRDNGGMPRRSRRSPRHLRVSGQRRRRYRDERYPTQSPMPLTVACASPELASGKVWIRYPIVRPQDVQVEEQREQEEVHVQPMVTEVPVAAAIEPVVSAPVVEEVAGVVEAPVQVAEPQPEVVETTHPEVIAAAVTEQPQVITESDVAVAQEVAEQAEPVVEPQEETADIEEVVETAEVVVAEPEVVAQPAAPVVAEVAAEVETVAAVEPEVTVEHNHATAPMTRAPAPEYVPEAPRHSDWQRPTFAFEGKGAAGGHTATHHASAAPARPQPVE
# UniProt P0A6Z3: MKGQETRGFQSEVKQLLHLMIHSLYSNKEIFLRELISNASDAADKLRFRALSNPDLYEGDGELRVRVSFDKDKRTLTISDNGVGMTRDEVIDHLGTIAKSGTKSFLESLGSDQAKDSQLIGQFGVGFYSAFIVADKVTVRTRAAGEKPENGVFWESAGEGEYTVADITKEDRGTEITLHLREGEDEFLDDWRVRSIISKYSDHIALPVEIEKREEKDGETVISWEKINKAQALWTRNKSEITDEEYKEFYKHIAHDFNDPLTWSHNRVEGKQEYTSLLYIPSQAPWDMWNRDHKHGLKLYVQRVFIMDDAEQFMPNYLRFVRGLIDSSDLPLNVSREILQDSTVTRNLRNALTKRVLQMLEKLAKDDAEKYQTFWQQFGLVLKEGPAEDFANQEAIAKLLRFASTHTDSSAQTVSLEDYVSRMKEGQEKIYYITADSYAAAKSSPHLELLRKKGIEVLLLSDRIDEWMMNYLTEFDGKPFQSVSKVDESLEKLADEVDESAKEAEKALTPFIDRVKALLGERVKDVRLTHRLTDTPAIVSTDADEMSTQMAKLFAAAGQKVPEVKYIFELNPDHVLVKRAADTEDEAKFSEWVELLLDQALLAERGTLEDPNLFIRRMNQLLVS
# UniProt P0A6X3: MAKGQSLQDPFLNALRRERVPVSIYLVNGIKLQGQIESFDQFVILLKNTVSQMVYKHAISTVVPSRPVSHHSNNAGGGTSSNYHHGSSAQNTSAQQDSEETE
# UniProt P0A7J3: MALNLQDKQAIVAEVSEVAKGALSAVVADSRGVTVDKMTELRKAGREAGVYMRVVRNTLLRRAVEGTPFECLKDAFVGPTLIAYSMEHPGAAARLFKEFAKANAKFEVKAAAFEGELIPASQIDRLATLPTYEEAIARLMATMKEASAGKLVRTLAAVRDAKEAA
# UniProt P08622: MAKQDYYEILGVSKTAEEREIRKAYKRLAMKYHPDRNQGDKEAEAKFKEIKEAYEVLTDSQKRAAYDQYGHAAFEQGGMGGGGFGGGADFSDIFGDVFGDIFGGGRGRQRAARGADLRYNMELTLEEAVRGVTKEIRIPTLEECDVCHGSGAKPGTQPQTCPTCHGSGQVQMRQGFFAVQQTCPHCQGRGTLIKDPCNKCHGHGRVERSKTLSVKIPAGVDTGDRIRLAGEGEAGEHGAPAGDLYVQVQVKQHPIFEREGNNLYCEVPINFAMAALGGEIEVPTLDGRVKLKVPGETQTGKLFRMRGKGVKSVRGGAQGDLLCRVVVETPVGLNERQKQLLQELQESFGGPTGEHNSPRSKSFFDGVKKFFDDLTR
# UniProt P0A6K6: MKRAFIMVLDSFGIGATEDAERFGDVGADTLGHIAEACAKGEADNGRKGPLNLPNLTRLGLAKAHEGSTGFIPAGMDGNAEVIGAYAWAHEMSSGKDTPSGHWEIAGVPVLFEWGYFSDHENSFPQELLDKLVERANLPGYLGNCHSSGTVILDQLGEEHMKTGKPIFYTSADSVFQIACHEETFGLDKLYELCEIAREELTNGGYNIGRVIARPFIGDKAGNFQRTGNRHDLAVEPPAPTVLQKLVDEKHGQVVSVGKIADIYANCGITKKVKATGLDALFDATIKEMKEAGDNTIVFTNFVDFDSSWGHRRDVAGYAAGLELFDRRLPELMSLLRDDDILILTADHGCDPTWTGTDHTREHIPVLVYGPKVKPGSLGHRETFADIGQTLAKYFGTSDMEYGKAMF
# UniProt P0A7L0: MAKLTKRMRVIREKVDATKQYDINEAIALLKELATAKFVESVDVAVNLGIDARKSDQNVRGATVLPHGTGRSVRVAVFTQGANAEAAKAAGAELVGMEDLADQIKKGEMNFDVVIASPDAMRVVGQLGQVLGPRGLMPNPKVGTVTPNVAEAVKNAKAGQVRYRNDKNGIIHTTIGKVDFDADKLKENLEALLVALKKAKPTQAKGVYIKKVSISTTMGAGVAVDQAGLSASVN
# UniProt P0A9P6: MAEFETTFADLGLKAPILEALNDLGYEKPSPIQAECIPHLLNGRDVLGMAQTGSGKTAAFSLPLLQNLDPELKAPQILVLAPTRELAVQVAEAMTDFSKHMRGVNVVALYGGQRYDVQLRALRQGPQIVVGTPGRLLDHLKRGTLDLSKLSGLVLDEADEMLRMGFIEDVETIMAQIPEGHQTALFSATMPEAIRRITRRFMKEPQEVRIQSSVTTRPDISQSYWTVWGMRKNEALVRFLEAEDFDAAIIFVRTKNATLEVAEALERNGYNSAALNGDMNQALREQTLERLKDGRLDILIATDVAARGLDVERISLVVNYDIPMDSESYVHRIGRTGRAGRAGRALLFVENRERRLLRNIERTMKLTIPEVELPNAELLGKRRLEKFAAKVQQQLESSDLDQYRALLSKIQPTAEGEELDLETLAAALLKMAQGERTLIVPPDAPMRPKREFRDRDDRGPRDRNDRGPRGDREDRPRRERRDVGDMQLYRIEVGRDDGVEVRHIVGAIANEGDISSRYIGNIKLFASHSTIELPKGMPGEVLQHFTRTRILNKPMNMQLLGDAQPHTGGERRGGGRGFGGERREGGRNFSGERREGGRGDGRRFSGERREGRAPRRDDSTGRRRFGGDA
# T1: polyhistidine-tagged NudC (NudC-His) (E. coli) (UniProt P32664)
# T1 sequence: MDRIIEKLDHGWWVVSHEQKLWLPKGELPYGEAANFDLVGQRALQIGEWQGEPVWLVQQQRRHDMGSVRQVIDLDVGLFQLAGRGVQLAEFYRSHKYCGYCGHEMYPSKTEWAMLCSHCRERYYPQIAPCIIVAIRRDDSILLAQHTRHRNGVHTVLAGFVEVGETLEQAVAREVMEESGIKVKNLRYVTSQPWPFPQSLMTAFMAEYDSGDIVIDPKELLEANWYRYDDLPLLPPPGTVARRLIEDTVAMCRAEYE
# Target: T1, polyhistidine-tagged NudC (NudC-His) (E. coli)
# Test: affinity purification with mass spectrometry; proteome-wide screen: NudC-His expressed in E. coli BL21(DE3)RIL cells (16°C or 37°C); Ni2+ resin, washes, NudC-associated proteins eluted with 8 M urea; LC-MS^E; proteins in at least two of three replicates and not in controls without NudC
row,Molecule,binding
1,Clp protease ATP-binding subunit ClpX (from UniProt P0A6H1 1-424),binds
2,Heat-shock chaperone protein ClpB (from UniProt P63284 1-857),binds
3,Protease ATPase subunit HslU (from UniProt P0A6H5 1-443),binds
4,Transcription termination factor Rho (from UniProt P0AG30 1-419),binds
5,Translation initiation factor IF-2 (from UniProt P0A705 1-890),binds
6,Trigger factor (from UniProt P0A850 1-432),binds
7,ribonuclease E (RNase E) (from UniProt P21513 1-1061),no binding
8,tRNA/rRNA methyltransferase (SpoU) (E. coli (endogenous in BL21(DE3)RIL)),binds

# Further lines, results first:
row,binding,Molecule
1,binds,CRM domain-containing protein (E. coli (endogenous in BL21(DE3)RIL))
2,binds,Heat-shock chaperone protein HtpG (from UniProt P0A6Z3 1-624)
3,binds,RNA chaperone protein Hfq (from UniProt P0A6X3 1-102)

# Target: T1, polyhistidine-tagged NudC (NudC-His) (E. coli)
# Test: as above
# Remark: another data set of the same source
row,binding,Molecule
1,no binding,"RNA helicase RhlB (protein, UniProt P0A8J8 1-421) MSKTHLTEQKFSDFALHPKVVEALEKKGFHNCTPIQALALPLTLAGRDVAGQAQTGTGKTMAFLTSTFHYLLSHPAIADRKVNQPRALIMAPTRELAVQIHADAEPLAEATGLKLGLAYGGDGYDKQLKVLESGVDILIGTTGRLIDYAKQNHINLGAIQVVVLDEADRMYDLGFIKDIRWLFRRMPPANQRLNMLFSATLSYRVRELAFEQMNNAEYIEVEPEQKTGHRIKEELFYPSNEEKMRLLQTLIEEEWPDRAIIFANTKHRCEEIWGHLAADGHRVGLLTGDVAQKKRLRILDEFTRGDLDILVATDVAARGLHIPAVTHVFNYDLPDDCEDYVHRIGRTGRAGASGHSISLACEEYALNLPAIETYIGHSIPVSKYNPDALMTDLPKPLRLTRPRTGNGPRRTGAPRNRRRSG"

# Target: T1, polyhistidine-tagged NudC (NudC-His) (E. coli)
# Test: affinity purification with mass spectrometry; proteome-wide screen: purified NudC-His added to E. coli BL21(DE3)RIL lysate (cells grown at 16°C or 37°C); Ni2+ resin, washes, NudC-associated proteins eluted with 8 M urea; LC-MS^E; proteins in at least two of three replicates and not in controls without NudC; only the target purified
row,Molecule,binding
1,50S ribosome subunit protein L10 (from UniProt P0A7J3 1-165),binds
2,Chaperone protein DnaJ (from UniProt P08622 1-376),binds
3,Phosphopentomutase (from UniProt P0A6K6 1-407),binds
4,ribonuclease E (RNase E) (from UniProt P21513 1-1061),no binding
5,"UspA domain protein UspG (UP12) (protein, UniProt P39177 1-142) MYKTIIMPVDVFEMELSDKAVRHAEFLAQDDGVIHLLHVLPGSASLSLHRFAADVRRFEEHLQHEAQERLQTMVSHFTIDPSRIKQHVRFGSVRDEVNELAEELGADVVVIGSRNPSISTHLLGSNASSVIRHANLPVLVVR",binds
6,"RNA helicase RhlB (protein, UniProt P0A8J8 1-421) MSKTHLTEQKFSDFALHPKVVEALEKKGFHNCTPIQALALPLTLAGRDVAGQAQTGTGKTMAFLTSTFHYLLSHPAIADRKVNQPRALIMAPTRELAVQIHADAEPLAEATGLKLGLAYGGDGYDKQLKVLESGVDILIGTTGRLIDYAKQNHINLGAIQVVVLDEADRMYDLGFIKDIRWLFRRMPPANQRLNMLFSATLSYRVRELAFEQMNNAEYIEVEPEQKTGHRIKEELFYPSNEEKMRLLQTLIEEEWPDRAIIFANTKHRCEEIWGHLAADGHRVGLLTGDVAQKKRLRILDEFTRGDLDILVATDVAARGLHIPAVTHVFNYDLPDDCEDYVHRIGRTGRAGASGHSISLACEEYALNLPAIETYIGHSIPVSKYNPDALMTDLPKPLRLTRPRTGNGPRRTGAPRNRRRSG",no binding
7,"Small heat shock protein IbpA (protein, UniProt P0C054 1-137) MRNFDLSPLYRSAIGFDRLFNHLENNQSQSNGGYPPYNVELVDENHYRIAIAVAGFAESELEITAQDNLLVVKGAHADEQKERTYLYQGIAERNFERKFQLAENIHVRGANLVNGLLYIDLERVIPEAKKPRRIEIN",binds
8,"Polyribonucleotide nucleotidyltransferase (protein, UniProt P05055 1-711) MLNPIVRKFQYGQHTVTLETGMMARQATAAVMVSMDDTAVFVTVVGQKKAKPGQDFFPLTVNYQERTYAAGRIPGSFFRREGRPSEGETLIARLIDRPIRPLFPEGFVNEVQVIATVVSVNPQVNPDIVAMIGASAALSLSGIPFNGPIGAARVGYINDQYVLNPTQDELKESKLDLVVAGTEAAVLMVESEAQLLSEDQMLGAVVFGHEQQQVVIQNINELVKEAGKPRWDWQPEPVNEALNARVAALAEARLSDAYRITDKQERYAQVDVIKSETIATLLAEDETLDENELGEILHAIEKNVVRSRVLAGEPRIDGREKDMIRGLDVRTGVLPRTHGSALFTRGETQALVTATLGTARDAQVLDELMGERTDTFLFHYNFPPYSVGETGMVGSPKRREIGHGRLAKRGVLAVMPDMDKFPYTVRVVSEITESNGSSSMASVCGASLALMDAGVPIKAAVAGIAMGLVKEGDNYVVLSDILGDEDHLGDMDFKVAGSRDGISALQMDIKIEGITKEIMQVALNQAKGARLHILGVMEQAINAPRGDISEFAPRIHTIKINPDKIKDVIGKGGSVIRALTEETGTTIEIEDDGTVKIAATDGEKAKHAIRRIEEITAEIEVGRVYTGKVTRIVDFGAFVAIGGGKEGLVHISQIADKRVEKVTDYLQMGQEVPVKVLEVDRQGRIRLSIKEATEQSQPAAAPEAPAAEQGE",binds
9,"Succinate dehydrogenase flavoprotein (protein, UniProt P0AC41 1-588) MKLPVREFDAVVIGAGGAGMRAALQISQSGQTCALLSKVFPTRSHTVSAQGGITVALGNTHEDNWEWHMYDTVKGSDYIGDQDAIEYMCKTGPEAILELEHMGLPFSRLDDGRIYQRPFGGQSKNFGGEQAARTAAAADRTGHALLHTLYQQNLKNHTTIFSEWYALDLVKNQDGAVVGCTALCIETGEVVYFKARATVLATGGAGRIYQSTTNAHINTGDGVGMAIRAGVPVQDMEMWQFHPTGIAGAGVLVTEGCRGEGGYLLNKHGERFMERYAPNAKDLAGRDVVARSIMIEIREGRGCDGPWGPHAKLKLDHLGKEVLESRLPGILELSRTFAHVDPVKEPIPVIPTCHYMMGGIPTKVTGQALTVNEKGEDVVVPGLFAVGEIACVSVHGANRLGGNSLLDLVVFGRAAGLHLQESIAEQGALRDASESDVEASLDRLNRWNNNRNGEDPVAIRKALQECMQHNFSVFREGDAMAKGLEQLKVIRERLKNARLDDTSSEFNTQRVECLELDNLMETAYATAVSANFRTESRGAHSRFDFPDRDDENWLCHSLYLPESESMTRRSVNMEPKLRPAFPPKIRTY",binds

# Other lines, results leading:
row,binding,Molecule
1,binds,50S ribosome subunit protein L1 (from UniProt P0A7L0 1-234)
2,binds,50S ribosome subunit protein L11 (from UniProt P0A7J7 1-142)
3,binds,DEAD-box RNA helicase CsdA (from UniProt P0A9P6)
4,binds,"Cold-shock chaperone protein YdfK (protein, UniProt P76154 1-77) MKSKDTLKWFPAQLPEVRIILGDAVVEVAKQGRPINTRTLLDYIEGNIKKKSWLDNKELLQTAISVLKDNQNLNGKM"

# These are yes or no findings as the source states them, for the method shown. In cells and extracts the contact can be indirect. A yes stands for co-enrichment or nearness to the bait. Other partners may have been found. No binding means not detected with the bait. Tags and fused reporters may be left off the sequences shown.
